The supplement of paper PMC12067093, “Discovery and optimisation of a covalent ligand for TRIM25 and its application to targeted protein ubiquitination” (Chemical Science, 2025)
The other results are listed elsewhere or left out.

Chains of the proteins cited; added tags and fusions are not shown. Lines headed by an entry give the natural chain unless they say otherwise; changes in a name come on top.
UniProt Q9BTE3: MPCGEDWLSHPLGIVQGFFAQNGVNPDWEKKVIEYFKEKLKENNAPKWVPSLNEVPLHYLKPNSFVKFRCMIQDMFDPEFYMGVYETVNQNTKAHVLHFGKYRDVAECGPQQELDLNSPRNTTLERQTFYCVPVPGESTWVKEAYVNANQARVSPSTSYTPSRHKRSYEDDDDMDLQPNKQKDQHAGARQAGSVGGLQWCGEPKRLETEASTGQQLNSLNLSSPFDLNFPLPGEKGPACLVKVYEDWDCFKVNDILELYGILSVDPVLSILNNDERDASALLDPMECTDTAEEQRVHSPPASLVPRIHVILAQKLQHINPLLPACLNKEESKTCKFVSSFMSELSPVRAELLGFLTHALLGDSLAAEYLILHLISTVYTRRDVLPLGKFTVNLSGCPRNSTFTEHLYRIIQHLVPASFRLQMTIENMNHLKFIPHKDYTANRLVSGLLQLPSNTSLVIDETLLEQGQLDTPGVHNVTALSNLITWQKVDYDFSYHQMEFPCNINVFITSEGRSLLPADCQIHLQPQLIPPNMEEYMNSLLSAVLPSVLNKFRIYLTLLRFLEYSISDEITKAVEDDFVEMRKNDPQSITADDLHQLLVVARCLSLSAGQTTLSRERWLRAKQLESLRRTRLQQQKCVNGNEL
UniProt Q9HCC0: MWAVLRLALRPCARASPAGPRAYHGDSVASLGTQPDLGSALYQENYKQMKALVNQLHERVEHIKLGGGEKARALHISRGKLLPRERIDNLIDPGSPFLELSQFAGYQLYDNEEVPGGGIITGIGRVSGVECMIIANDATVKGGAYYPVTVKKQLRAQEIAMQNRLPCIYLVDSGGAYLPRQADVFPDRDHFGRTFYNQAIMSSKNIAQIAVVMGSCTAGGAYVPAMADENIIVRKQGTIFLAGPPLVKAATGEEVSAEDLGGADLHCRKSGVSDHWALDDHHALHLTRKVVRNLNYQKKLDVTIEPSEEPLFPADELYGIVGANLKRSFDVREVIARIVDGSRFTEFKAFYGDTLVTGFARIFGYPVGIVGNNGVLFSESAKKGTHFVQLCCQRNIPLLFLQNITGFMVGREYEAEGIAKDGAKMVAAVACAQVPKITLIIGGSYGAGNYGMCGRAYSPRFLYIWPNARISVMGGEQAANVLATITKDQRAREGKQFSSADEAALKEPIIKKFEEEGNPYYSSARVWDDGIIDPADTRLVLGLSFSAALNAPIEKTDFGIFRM
UniProt O14880: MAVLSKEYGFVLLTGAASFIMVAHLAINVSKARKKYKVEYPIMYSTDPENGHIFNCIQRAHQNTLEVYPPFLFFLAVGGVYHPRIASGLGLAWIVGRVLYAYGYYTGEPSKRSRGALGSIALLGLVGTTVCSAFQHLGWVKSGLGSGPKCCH
UniProt P40926: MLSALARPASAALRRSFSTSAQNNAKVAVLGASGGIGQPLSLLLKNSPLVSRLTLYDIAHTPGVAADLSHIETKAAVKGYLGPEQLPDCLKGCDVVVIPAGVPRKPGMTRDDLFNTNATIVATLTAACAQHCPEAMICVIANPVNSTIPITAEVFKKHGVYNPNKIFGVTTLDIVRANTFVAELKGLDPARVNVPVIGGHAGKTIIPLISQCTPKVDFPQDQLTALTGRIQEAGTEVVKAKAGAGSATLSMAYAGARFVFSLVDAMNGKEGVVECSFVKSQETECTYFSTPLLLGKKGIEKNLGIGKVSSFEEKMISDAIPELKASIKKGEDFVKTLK
UniProt Q8N6R0: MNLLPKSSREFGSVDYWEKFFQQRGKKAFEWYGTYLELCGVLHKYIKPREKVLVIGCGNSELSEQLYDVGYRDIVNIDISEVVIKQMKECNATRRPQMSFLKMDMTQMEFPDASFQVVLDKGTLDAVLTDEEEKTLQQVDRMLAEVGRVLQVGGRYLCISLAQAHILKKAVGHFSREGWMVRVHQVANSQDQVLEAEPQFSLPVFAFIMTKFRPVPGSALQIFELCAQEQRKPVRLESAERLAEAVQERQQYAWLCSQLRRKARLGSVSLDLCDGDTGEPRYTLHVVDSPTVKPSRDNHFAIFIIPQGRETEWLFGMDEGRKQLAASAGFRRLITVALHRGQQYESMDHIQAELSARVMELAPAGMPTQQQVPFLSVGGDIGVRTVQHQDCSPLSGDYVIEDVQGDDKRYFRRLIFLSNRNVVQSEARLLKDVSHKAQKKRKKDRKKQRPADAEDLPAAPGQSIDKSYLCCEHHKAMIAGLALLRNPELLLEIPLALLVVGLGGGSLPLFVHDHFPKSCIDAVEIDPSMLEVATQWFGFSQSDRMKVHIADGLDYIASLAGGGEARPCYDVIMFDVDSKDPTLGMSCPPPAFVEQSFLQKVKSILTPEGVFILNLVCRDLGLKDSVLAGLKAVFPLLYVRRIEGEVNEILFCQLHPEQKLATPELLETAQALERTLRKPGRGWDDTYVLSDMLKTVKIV
UniProt Q15648, whole entry, looked up: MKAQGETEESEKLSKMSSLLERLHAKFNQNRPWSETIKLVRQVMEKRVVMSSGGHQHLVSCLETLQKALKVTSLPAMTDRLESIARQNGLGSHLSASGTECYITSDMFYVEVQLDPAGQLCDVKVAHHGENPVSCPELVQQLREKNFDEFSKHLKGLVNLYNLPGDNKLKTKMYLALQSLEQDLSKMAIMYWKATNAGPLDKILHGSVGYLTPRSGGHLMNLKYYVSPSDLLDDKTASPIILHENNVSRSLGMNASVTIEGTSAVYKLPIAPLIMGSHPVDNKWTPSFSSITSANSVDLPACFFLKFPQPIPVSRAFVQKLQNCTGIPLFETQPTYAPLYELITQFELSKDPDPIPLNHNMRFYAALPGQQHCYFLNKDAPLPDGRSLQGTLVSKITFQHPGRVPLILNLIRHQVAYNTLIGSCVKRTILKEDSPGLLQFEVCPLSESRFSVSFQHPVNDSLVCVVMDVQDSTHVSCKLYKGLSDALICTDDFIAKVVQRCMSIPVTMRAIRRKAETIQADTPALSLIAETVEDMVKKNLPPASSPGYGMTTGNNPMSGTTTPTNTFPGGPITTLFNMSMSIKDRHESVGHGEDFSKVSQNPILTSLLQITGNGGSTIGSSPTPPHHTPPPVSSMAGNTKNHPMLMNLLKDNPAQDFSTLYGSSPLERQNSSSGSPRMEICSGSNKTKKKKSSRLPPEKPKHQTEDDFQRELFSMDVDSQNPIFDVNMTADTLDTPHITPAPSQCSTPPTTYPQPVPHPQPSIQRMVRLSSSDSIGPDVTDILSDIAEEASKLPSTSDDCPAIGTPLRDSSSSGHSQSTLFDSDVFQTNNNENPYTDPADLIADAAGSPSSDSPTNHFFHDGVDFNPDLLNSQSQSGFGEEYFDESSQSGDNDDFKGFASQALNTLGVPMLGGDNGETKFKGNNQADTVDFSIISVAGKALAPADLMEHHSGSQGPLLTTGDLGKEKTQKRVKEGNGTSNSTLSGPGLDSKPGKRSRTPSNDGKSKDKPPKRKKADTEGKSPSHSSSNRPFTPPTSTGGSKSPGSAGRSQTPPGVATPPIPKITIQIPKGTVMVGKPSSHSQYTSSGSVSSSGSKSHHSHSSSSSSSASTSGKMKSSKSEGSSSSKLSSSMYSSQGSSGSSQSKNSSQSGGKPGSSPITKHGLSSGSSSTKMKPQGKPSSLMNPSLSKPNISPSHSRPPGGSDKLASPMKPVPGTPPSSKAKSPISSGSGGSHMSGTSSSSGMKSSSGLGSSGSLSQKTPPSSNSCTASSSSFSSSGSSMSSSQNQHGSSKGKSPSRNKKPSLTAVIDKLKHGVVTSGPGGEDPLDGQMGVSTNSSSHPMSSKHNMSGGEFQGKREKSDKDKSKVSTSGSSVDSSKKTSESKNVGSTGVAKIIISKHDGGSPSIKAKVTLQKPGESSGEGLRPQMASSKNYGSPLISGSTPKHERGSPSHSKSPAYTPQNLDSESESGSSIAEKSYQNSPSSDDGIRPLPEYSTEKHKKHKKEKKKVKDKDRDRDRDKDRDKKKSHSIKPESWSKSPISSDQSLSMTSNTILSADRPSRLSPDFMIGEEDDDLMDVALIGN
UniProt Q6N075: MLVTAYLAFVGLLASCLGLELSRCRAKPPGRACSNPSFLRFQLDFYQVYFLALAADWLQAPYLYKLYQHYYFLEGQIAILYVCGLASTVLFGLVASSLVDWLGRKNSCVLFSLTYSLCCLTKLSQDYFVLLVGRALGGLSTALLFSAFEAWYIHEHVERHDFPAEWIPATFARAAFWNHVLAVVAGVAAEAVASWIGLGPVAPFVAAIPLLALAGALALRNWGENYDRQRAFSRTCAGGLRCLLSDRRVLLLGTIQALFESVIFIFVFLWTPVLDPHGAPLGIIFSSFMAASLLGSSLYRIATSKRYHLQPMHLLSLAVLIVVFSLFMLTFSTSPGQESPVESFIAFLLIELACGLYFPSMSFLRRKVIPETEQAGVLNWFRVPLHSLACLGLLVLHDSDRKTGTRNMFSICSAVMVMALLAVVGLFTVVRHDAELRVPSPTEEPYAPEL
UniProt Q14566: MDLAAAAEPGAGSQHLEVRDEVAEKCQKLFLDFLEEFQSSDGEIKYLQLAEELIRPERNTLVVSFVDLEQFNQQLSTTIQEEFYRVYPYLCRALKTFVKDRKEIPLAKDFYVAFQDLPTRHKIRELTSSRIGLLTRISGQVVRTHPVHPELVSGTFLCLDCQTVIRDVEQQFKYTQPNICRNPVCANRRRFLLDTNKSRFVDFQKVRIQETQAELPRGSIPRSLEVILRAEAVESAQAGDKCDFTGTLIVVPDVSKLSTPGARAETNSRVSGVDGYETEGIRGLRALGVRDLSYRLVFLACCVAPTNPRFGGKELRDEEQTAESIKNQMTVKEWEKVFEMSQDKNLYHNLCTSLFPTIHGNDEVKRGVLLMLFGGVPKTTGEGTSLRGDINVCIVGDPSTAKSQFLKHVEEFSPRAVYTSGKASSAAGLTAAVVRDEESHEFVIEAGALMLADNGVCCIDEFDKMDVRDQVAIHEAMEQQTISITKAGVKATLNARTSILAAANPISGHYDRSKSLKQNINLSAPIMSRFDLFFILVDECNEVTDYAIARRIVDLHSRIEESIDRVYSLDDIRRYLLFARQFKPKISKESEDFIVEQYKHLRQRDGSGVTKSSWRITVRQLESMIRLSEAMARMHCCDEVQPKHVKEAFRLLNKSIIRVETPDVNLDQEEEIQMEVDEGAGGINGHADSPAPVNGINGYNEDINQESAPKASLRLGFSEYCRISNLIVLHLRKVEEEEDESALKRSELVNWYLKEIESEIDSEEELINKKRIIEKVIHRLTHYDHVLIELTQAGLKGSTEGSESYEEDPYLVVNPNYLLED
UniProt P33991: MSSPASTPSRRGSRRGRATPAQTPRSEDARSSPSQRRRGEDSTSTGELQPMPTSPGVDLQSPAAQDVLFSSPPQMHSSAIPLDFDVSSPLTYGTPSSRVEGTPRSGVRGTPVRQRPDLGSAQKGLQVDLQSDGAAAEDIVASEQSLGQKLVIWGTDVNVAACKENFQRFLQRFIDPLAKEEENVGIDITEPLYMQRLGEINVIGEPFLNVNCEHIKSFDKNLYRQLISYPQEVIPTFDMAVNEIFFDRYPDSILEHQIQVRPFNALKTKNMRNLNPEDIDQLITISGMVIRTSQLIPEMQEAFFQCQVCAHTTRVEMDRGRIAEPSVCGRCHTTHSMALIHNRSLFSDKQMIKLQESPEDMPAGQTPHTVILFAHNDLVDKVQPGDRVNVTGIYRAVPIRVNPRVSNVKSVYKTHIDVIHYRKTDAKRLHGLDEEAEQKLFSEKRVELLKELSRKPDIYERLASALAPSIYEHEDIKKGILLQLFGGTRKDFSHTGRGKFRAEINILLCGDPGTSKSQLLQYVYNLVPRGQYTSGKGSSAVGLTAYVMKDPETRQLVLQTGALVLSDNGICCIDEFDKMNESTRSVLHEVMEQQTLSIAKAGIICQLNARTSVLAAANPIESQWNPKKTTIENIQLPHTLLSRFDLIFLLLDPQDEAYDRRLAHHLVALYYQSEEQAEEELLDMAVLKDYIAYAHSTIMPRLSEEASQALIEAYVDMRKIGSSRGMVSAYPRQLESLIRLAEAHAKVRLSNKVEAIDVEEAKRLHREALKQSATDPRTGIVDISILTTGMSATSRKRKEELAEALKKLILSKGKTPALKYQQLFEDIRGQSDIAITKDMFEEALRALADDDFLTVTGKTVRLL
UniProt O95568: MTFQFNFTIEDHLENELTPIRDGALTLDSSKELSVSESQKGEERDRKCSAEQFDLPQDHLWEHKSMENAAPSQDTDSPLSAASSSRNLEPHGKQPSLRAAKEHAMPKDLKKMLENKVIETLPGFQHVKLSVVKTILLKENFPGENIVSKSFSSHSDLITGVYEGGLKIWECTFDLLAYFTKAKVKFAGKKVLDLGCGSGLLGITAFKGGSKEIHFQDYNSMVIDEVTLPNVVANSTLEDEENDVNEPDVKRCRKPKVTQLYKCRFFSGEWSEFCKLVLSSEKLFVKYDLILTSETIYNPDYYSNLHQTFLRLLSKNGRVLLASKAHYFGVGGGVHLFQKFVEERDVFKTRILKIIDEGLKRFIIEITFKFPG

Compound: Cc1cc(ccc1-c1ccccc1)C(=O)N1CCCN(CC1)C(=O)CCl [compound 10]
Test: probe-labelled cysteine peptide fold change vs DMSO (competition) (log2 fold change); higher = less target engagement (more negative = stronger competition)
Details: THP-1, incubation time: 4 h
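Note: competitive profiling in live THP-1 cells: cysteine peptides tagged with an iodoacetamide desthiobiotin (IA-DTB) probe, intensity after compound treatment relative to DMSO-treated cells.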

Target: MCMBP_Q9BTE3_396_FTVNLSGCPR (UniProt Q9BTE3)
- probe-labelled cysteine peptide fold change (10 µM): 0.0768
- probe-labelled cysteine peptide fold change (50 µM): -0.00862

Target: MIA3_Q5JRA6_124_EELQVPTDETDFVCFDGGR (UniProt Q5JRA6)
- probe-labelled cysteine peptide fold change (10 µM): -0.101
- probe-labelled cysteine peptide fold change (50 µM): 0.109

Target: MCCC2_Q9HCC0_391+392_KGTHFVQLCCQR (UniProt Q9HCC0)
- probe-labelled cysteine peptide fold change (10 µM): 0.121
- probe-labelled cysteine peptide fold change (50 µM): 0.191

Target: MED21_Q13503_103_LEEENHEAATCLEDVVYR (UniProt Q13503)
- probe-labelled cysteine peptide fold change (10 µM): 0.284
- probe-labelled cysteine peptide fold change (50 µM): 0.455

Target: MED14_O60244_779_LYECVLEFAR (UniProt O60244)
- probe-labelled cysteine peptide fold change (10 µM): 0.057
- probe-labelled cysteine peptide fold change (50 µM): 0.184

Target: MED17_Q9NVC6_363_QCPEDHLYVLEHNLHLLIR (UniProt Q9NVC6)
- probe-labelled cysteine peptide fold change (10 µM): -0.194
- probe-labelled cysteine peptide fold change (50 µM): -0.88

Target: MGST3_O14880_56_YKVEYPIMYSTDPENGHIFNCIQR (UniProt O14880)
- probe-labelled cysteine peptide fold change (10 µM): 0.0464
- probe-labelled cysteine peptide fold change (50 µM): -0.056

Target: MCM3_P25205_360_YVLCTAPR (UniProt P25205)
- probe-labelled cysteine peptide fold change (10 µM): -0.0772
- probe-labelled cysteine peptide fold change (50 µM): -0.00978

Target: MDH2_P40926_212_TIIPLISQCTPK (UniProt P40926)
- probe-labelled cysteine peptide fold change (10 µM): -0.0749
- probe-labelled cysteine peptide fold change (50 µM): 0.0289

Target: MEFV_O15553_315_CHAQEGDPVDGTCVR (UniProt O15553)
- probe-labelled cysteine peptide fold change (10 µM): -0.33
- probe-labelled cysteine peptide fold change (50 µM): 0.163

Target: MDN1_Q9NU22_1105_TSLIQWLAAATGNHCVR (UniProt Q9NU22)
- probe-labelled cysteine peptide fold change (10 µM): -0.0864
- probe-labelled cysteine peptide fold change (50 µM): 0.854

Target: MGA_Q8IWI9_1238_EEDKDPVYLYFESMMTCAR (UniProt Q8IWI9)
- probe-labelled cysteine peptide fold change (10 µM): 0.0142
- probe-labelled cysteine peptide fold change (50 µM): 0.189

Target: MCM3AP_O60318_588_AHQFEGDSFDSASEGSEGLGPCVLSLSTLIGTVAETSK (UniProt O60318)
- probe-labelled cysteine peptide fold change (10 µM): -0.0827
- probe-labelled cysteine peptide fold change (50 µM): -0.444

Target: METTL3_Q86U44_326_HTDESLGDCSFLNTCFHMDTCK (UniProt Q86U44)
- probe-labelled cysteine peptide fold change (10 µM): 0.143
- probe-labelled cysteine peptide fold change (50 µM): -0.0713

Target: MGST1_P10620_50_VFANPEDCVAFGKGENAKK (UniProt P10620)
- probe-labelled cysteine peptide fold change (10 µM): -0.397
- probe-labelled cysteine peptide fold change (50 µM): -0.691

Target: MGRN1_O60291_297_HLCLCTSCADTLR (UniProt O60291)
- probe-labelled cysteine peptide fold change (10 µM): -0.168
- probe-labelled cysteine peptide fold change (50 µM): -0.164

Target: MCM8_Q9UJA3_411_LIVNSLCPVIFGHELVK (UniProt Q9UJA3)
- probe-labelled cysteine peptide fold change (10 µM): 0.0771
- probe-labelled cysteine peptide fold change (50 µM): 0.349

Target: MEMO1_Q9Y316_244_YHNTICGR (UniProt Q9Y316)
- probe-labelled cysteine peptide fold change (10 µM): -0.13
- probe-labelled cysteine peptide fold change (50 µM): 0.286

Target: METTL13_Q8N6R0_273_LGSVSLDLCDGDTGEPR (UniProt Q8N6R0)
- probe-labelled cysteine peptide fold change (10 µM): -0.0221
- probe-labelled cysteine peptide fold change (50 µM): -0.00612

Target: MDN1_Q9NU22_4604_HLFFSQSCSLLVR (UniProt Q9NU22)
- probe-labelled cysteine peptide fold change (10 µM): -0.00746
- probe-labelled cysteine peptide fold change (50 µM): 0.194

Target: MCM2_P49736_223_ISDMCK (UniProt P49736)
- probe-labelled cysteine peptide fold change (10 µM): -0.124
- probe-labelled cysteine peptide fold change (50 µM): -0.178

Target: MED1_Q15648_302_WTPSFSSITSANSVDLPACFFLK (UniProt Q15648)
- probe-labelled cysteine peptide fold change (10 µM): 0.18
- probe-labelled cysteine peptide fold change (50 µM): 0.168

Target: MED1_Q15648_489_GLSDALICTDDFIAK (UniProt Q15648)
- probe-labelled cysteine peptide fold change (10 µM): 0.0372
- probe-labelled cysteine peptide fold change (50 µM): -0.0427

Target: ME1_P48163_110_FMPIVYTPTVGLACQQYSLVFR (UniProt P48163)
- probe-labelled cysteine peptide fold change (10 µM): -0.26
- probe-labelled cysteine peptide fold change (50 µM): 0.641

Target: MED1_Q15648_135_VAHHGENPVSCPELVQQLR (UniProt Q15648)
- probe-labelled cysteine peptide fold change (10 µM): -0.0375
- probe-labelled cysteine peptide fold change (50 µM): -0.395

Target: METAP2_P50579_263_IIDCAFTVTFNPK (UniProt P50579)
- probe-labelled cysteine peptide fold change (10 µM): 0.171
- probe-labelled cysteine peptide fold change (50 µM): 0.0277

Target: METTL14_Q9HCE5_120_GTQSLNPHNDYCQHFVDTGHRPQNFIR (UniProt Q9HCE5)
- probe-labelled cysteine peptide fold change (10 µM): 0.0798
- probe-labelled cysteine peptide fold change (50 µM): 0.361

Target: MFSD5_Q6N075_390_VPLHSLACLGLLVLHDSDRK (UniProt Q6N075)
- probe-labelled cysteine peptide fold change (10 µM): 0.152
- probe-labelled cysteine peptide fold change (50 µM): 0.235

Target: MCM6_Q14566_637_MHCCDEVQPK (UniProt Q14566)
- probe-labelled cysteine peptide fold change (10 µM): -0.06
- probe-labelled cysteine peptide fold change (50 µM): -0.544

Target: MCM4_P33991_309_TSQLIPEMQEAFFQCQVCAHTTR (UniProt P33991)
- probe-labelled cysteine peptide fold change (10 µM): 0.209
- probe-labelled cysteine peptide fold change (50 µM): -0.125

Target: METTL18_O95568_196_VLDLGCGSGLLGITAFK (UniProt O95568)
- probe-labelled cysteine peptide fold change (10 µM): 0.0108
- probe-labelled cysteine peptide fold change (50 µM): 0.194

Target: METAP1_P53582_368_SAQFEHTLLVTDTGCEILTRR (UniProt P53582)
- probe-labelled cysteine peptide fold change (10 µM): 0.0198
- probe-labelled cysteine peptide fold change (50 µM): -0.277

Target: METTL13_Q8N6R0_39_AFEWYGTYLELCGVLHK (UniProt Q8N6R0)
- probe-labelled cysteine peptide fold change (10 µM): -0.148
- probe-labelled cysteine peptide fold change (50 µM): 0.124

Target: MDN1_Q9NU22_979_FAASNPCGNIQR (UniProt Q9NU22)
- probe-labelled cysteine peptide fold change (10 µM): 0.0245
- probe-labelled cysteine peptide fold change (50 µM): 0.0901

Target: MDN1_Q9NU22_57_DCTVLVGR (UniProt Q9NU22)
- probe-labelled cysteine peptide fold change (10 µM): -0.0352
- probe-labelled cysteine peptide fold change (50 µM): 0.00173

Target: MCM4_P33991_328_IAEPSVCGR (UniProt P33991)
- probe-labelled cysteine peptide fold change (10 µM): 0.0169
- probe-labelled cysteine peptide fold change (50 µM): -0.0125

Target: MCMBP_Q9BTE3_249_VYEDWDCFK (UniProt Q9BTE3)
- probe-labelled cysteine peptide fold change (10 µM): -0.042
- probe-labelled cysteine peptide fold change (50 µM): -0.0294

Target: MCM6_Q14566_301_LVFLACCVAPTNPR (UniProt Q14566)
- probe-labelled cysteine peptide fold change (10 µM): 0.023
- probe-labelled cysteine peptide fold change (50 µM): -0.438
